Measurements: patent US20030138848A1, “3D structure of polypeptides containing a TPR-structure motif with chaperone-binding function, crystals thereof and compounds for inhibition of said polypeptides” (priority 2000, published 2003)
No constants are given. Whether binding was seen depends on the method and setting. Some entries that bind do so weakly or less than the wild type.

Molecular target: TPR1 domain of human Hop protein (codons 1-118) (human) (UniProt P31948)
Experiment: ITC, 25 °C

binding | Binder
binds | GASSGPTIEEVD (acetylated N-terminus) [C-terminal dodecamer peptide of Hsp70, …]
binds | GPTIEEVD (acetylated N-terminus) [Hsp70 peptide GPTIEEVD]
